Laboratory results taken from doi:10.1101/2024.05.07.592940.
Results are given in words; binding and its absence hold for the method and conditions named. In cells and extracts the contact can be indirect. Some entries that bind do so weakly or less than the wild type. For some assays here: Tags and fused reporters may be left off the sequences shown.

Amino acid sequences for entries named in this document (tags omitted).
UniProt P01106: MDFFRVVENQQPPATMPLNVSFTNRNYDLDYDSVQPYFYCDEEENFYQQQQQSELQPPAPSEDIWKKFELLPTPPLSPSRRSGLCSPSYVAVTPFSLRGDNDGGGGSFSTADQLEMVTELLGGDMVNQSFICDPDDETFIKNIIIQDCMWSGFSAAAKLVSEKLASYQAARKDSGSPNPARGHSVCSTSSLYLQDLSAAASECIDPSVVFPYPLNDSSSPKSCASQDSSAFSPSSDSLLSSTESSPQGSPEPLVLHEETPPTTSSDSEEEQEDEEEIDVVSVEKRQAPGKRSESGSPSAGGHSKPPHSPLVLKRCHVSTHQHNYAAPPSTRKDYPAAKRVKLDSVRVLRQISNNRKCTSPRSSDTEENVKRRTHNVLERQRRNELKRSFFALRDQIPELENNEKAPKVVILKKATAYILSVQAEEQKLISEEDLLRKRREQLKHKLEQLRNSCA

Columns and labels:
[1] = biological target: T1, non-receptor protein tyrosine phosphatase type 2 (PTPN2), endogenous (human (endogenous in MOLM13)) (UniProt P17706); test: co-IP
T1 sequence: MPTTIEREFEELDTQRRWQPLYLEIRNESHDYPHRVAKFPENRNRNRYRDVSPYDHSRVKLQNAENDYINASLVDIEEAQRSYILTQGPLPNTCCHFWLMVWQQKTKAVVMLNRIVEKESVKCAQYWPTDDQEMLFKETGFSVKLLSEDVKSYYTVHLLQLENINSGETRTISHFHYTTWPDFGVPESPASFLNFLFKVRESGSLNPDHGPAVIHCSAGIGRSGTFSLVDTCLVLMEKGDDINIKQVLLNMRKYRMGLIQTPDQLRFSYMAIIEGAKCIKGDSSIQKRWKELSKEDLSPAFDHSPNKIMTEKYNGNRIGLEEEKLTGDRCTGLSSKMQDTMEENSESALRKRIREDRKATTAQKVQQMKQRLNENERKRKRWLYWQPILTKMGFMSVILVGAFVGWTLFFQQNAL

[2] = biological target: T2, GST-PTPN2 recombinant protein (human) (UniProt P17706); test: pull-down
T2 sequence: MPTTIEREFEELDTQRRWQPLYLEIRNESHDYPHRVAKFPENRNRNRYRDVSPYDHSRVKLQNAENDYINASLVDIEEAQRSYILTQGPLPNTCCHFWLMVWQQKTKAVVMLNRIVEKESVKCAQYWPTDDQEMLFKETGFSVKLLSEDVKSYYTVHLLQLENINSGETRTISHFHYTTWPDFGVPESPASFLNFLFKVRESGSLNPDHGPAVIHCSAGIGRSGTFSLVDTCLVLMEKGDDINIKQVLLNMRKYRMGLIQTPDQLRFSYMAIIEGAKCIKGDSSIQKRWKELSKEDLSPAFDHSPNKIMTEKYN

binding [1]: binds
binding [2]: binds
Substance: C-MYC, endogenous (from UniProt P01106 1-454)
